Values from PubChem BioAssay AID504805 (Drosophila RNAi Screening Center, 2011)
Assay: 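Genome-wide fly cell screen for factors exporting mRNA from the nucleus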 (primary screen). Cells: Drosophila S2R+ cells. Reagent: long dsRNA against Drosophila genes, 0.25 µg dsRNA per well. Duration: 4 days. Detection: 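Poly(A) RNA detected by in situ hybridisation with a fluorescent oligo-dT probe, nuclei stained with a DNA dye; images judged by eye, phenotype noted per replicate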.
The reagents shown are a selection, not the whole library. 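Phenotypes are words from visual inspection of images, not measured scores.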 A plus sign joins genes that one reagent is predicted to hit.

CG11858 showed phenotype, replicate 1 = poly(A) RNA held back in the nucleus.
For Sulf1, the values are phenotype, replicate 1 = poly(A) RNA held back in the nucleus.
Uhg2 + snoRNA:Me18S-G1620 + snoRNA:U14:30Ea gave phenotype, replicate 1 = poly(A) RNA held back in the nucleus.
Knock-down of uif gave: phenotype, replicate 1 = poly(A) RNA held back in the nucleus.
For IleRS, the values are phenotype, replicate 1 = poly(A) RNA held back in the nucleus.
After knock-down of Ipk2 the results were phenotype, replicate 1 = poly(A) RNA held back in the nucleus.
Against Rm62 the deposit lists phenotype, replicate 1 = poly(A) RNA held back in the nucleus.
For Hr78, the entry reads phenotype, replicate 1 = poly(A) RNA held back in the nucleus.
Knock-down of CG2921 gave: phenotype, replicate 1 = poly(A) RNA held back in the nucleus; phenotype, replicate 2 = poly(A) RNA held back in the nucleus.
After knock-down of Cdk9, the record shows phenotype, replicate 1 = poly(A) RNA held back in the nucleus.
ssx showed phenotype, replicate 1 = poly(A) RNA held back in the nucleus.
Against CG14615, the values are phenotype, replicate 1 = poly(A) RNA held back in the nucleus.
After knock-down of Ppcs, the screen gave phenotype, replicate 1 = poly(A) RNA held back in the nucleus.
With knock-down of chinmo, the screen gave phenotype, replicate 1 = poly(A) RNA held back in the nucleus.
Against fru, the entry reads phenotype, replicate 1 = poly(A) RNA held back in the nucleus; phenotype, replicate 2 = poly(A) RNA held back in the nucleus.
z showed phenotype, replicate 1 = poly(A) RNA held back in the nucleus; phenotype, replicate 2 = poly(A) RNA held back in the nucleus.
CCHa2 showed phenotype, replicate 1 = poly(A) RNA held back in the nucleus.
CG14632 (retired record) showed phenotype, replicate 1 = poly(A) RNA held back in the nucleus.
After knock-down of CG15480 the results were phenotype, replicate 1 = poly(A) RNA held back in the nucleus.
CG7953 scored phenotype, replicate 1 = poly(A) RNA held back in the nucleus.
CG11298 showed phenotype, replicate 1 = poly(A) RNA held back in the nucleus.
Knock-down of Ets65A came out at: phenotype, replicate 1 = poly(A) RNA held back in the nucleus.
Against Arl5, the values are phenotype, replicate 1 = poly(A) RNA held back in the nucleus.
After knock-down of CG3587 the results were phenotype, replicate 1 = poly(A) RNA held back in the nucleus.
Silencing of RhoGAP93B gave: phenotype, replicate 1 = poly(A) RNA held back in the nucleus.
Knock-down of rdgA came out at: phenotype, replicate 1 = poly(A) RNA held back in the nucleus.
Knock-down of RpL39 gave: phenotype, replicate 1 = RNA gathered at the nuclear rim.
Tbc1d22 scored phenotype, replicate 1 = poly(A) RNA held back in the nucleus.
Against CG17192, the values are phenotype, replicate 1 = poly(A) RNA held back in the nucleus.
L (retired record) gave phenotype, replicate 1 = poly(A) RNA held back in the nucleus.
Against Pcif1 the deposit lists phenotype, replicate 1 = poly(A) RNA held back in the nucleus.
For CG32572, the values are phenotype, replicate 1 = poly(A) RNA held back in the nucleus.
With knock-down of asf1 the results were phenotype, replicate 1 = poly(A) RNA held back in the nucleus.
Silencing of CG42633 gave: phenotype, replicate 1 = poly(A) RNA held back in the nucleus.
After knock-down of ocn, the screen gave phenotype, replicate 1 = poly(A) RNA held back in the nucleus.
After knock-down of CG7214, the screen gave phenotype, replicate 1 = poly(A) RNA held back in the nucleus; phenotype, replicate 2 = poly(A) RNA held back in the nucleus.
After knock-down of Pef the results were phenotype, replicate 1 = poly(A) RNA held back in the nucleus.
Against CG8833 the deposit lists phenotype, replicate 1 = poly(A) RNA held back in the nucleus.
RnrS scored phenotype, replicate 1 = poly(A) RNA held back in the nucleus; phenotype, replicate 2 = poly(A) RNA held back in the nucleus.
Shal showed phenotype, replicate 1 = poly(A) RNA held back in the nucleus.
After knock-down of Tpst the results were phenotype, replicate 1 = poly(A) RNA held back in the nucleus.
Against CG5968, the values are phenotype, replicate 1 = poly(A) RNA held back in the nucleus.
For Arl4 the deposit lists phenotype, replicate 1 = poly(A) RNA held back in the nucleus.
Silencing of RpS16 came out at: phenotype, replicate 1 = poly(A) RNA held back in the nucleus.
For Paris, the values are phenotype, replicate 1 = poly(A) RNA held back in the nucleus.
lola scored phenotype, replicate 1 = poly(A) RNA held back in the nucleus.

An excerpt from above, showing only “phenotype, replicate 1”.
CG11298 = poly(A) RNA held back in the nucleus
Ets65A = poly(A) RNA held back in the nucleus
Arl5 = poly(A) RNA held back in the nucleus
CG3587 = poly(A) RNA held back in the nucleus
RhoGAP93B = poly(A) RNA held back in the nucleus
rdgA = poly(A) RNA held back in the nucleus
